Laboratory results as given in patent publication US20200002439A1.
Results are given in words; binding and its absence hold for the method and conditions named. Some entries that bind do so weakly or less than the wild type.

Protein sequences, listed by entry. Tags and fused reporters are not part of them. Lines headed by an entry give the natural chain unless they say otherwise; changes in a name come on top. Chains listed by the source or under a name are the forms on record and can include a tag or linker.
recombinant human VEGF 165 (P15692, form named): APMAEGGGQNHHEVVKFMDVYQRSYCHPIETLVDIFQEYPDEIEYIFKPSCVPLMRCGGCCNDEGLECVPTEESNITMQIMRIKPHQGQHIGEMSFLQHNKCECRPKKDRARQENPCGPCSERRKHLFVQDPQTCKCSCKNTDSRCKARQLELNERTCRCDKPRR

Biological target: recombinant human VEGF 165 (human) (UniProt P15692)
Test: competition ELISA, VEGFR-2 on coated VEGF 165

binding: binds
B1: aflibercept peptide (positive control) (protein)
chain: SDTGRPFVEMYSEIPEIIHMTEGRELVIPCRVTSPNITVTLKKFPLDTLIPDGKRIIWDSRKGFIISNATYKEIGLLTCEATVNGHLYKTNYLTHRQTNTIIDVVLSPSHGIELSVGEKLVLNCTARTELNVGIDFNWEYPSSKHQHKKLVNRDLKTQSGSEMKKFLSTLTIDGVTRSDQGLYTCAASSGLMTKKNSTFVRVHEK
